The supplement of paper PMC10849652
The list shows a part of the results.

The chains behind the UniProt entries cited, without tags or fusion partners. Where a name states a change or a piece, a line headed by the entry shows the natural chain unless it says otherwise.
UniProt P46926: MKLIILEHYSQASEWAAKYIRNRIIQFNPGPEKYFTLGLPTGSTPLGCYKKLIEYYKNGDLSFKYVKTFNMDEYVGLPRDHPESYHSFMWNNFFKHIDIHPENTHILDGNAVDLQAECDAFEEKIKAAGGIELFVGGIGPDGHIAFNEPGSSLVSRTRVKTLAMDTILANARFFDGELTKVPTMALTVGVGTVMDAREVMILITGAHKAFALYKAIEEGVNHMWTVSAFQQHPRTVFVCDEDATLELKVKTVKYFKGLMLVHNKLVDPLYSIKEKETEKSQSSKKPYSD
UniProt Q8N335: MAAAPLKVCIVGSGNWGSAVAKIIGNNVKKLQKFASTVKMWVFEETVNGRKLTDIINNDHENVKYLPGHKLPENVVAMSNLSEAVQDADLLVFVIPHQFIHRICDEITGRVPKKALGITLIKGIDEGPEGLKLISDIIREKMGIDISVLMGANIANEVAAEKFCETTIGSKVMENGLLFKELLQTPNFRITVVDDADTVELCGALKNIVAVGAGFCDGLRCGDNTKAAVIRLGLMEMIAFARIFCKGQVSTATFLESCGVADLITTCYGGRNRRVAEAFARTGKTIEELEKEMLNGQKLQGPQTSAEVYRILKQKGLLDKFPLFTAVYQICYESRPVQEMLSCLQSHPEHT
UniProt Q9Y3E0: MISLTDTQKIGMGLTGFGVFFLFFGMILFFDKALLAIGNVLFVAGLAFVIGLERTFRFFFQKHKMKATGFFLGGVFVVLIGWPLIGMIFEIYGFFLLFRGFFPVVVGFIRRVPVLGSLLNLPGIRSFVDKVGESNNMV
UniProt O43292: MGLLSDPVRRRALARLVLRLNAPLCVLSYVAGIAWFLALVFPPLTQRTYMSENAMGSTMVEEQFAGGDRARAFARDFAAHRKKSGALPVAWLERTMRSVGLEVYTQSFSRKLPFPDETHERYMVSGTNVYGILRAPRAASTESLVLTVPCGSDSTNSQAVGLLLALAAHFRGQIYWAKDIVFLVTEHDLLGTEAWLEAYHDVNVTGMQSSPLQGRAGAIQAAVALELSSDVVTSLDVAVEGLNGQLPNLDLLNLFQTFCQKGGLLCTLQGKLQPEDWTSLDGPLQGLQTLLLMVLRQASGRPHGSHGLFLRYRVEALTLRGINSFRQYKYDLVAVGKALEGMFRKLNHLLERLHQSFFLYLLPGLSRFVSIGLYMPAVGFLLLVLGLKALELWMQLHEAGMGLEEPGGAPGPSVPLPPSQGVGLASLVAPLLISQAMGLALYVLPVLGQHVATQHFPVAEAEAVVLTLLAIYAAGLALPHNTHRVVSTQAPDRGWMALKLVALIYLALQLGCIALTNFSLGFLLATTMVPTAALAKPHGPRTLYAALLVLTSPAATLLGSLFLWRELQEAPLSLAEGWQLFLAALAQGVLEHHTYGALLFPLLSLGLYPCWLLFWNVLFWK
UniProt Q13098: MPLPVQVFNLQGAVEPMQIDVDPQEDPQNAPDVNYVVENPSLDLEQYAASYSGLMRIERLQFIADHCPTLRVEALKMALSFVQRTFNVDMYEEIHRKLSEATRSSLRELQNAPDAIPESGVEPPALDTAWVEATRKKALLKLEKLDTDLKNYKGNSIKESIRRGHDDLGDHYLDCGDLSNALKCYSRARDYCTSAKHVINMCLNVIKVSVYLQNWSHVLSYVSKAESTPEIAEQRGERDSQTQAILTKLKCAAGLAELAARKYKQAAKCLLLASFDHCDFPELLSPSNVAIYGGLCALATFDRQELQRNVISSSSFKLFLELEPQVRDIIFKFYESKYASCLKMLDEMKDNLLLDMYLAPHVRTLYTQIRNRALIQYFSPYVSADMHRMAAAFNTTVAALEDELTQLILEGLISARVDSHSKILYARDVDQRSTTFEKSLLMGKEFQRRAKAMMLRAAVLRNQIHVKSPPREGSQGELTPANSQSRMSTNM
UniProt P00505: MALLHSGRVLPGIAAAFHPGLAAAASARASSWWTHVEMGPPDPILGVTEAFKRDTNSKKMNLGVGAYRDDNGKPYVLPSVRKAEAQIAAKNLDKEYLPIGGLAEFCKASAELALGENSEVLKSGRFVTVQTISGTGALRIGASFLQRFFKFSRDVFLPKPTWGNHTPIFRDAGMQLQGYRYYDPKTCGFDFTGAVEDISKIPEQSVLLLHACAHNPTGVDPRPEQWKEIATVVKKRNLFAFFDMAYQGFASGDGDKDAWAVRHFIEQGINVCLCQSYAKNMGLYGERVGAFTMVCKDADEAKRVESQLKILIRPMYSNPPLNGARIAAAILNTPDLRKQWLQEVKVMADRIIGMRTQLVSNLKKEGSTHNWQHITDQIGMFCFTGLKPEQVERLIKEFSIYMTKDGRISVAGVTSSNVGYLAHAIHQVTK
UniProt Q86SX6: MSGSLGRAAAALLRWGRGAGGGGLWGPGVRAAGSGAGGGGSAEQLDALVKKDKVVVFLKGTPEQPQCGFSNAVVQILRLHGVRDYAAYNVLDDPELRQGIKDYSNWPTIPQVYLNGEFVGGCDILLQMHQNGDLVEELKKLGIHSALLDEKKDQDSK
UniProt Q96EK6: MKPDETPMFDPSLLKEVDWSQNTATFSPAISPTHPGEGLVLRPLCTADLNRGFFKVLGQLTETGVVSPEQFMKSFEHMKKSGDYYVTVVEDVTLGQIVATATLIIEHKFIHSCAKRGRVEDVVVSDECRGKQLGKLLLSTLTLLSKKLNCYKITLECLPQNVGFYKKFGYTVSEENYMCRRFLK
UniProt Q9Y5P6: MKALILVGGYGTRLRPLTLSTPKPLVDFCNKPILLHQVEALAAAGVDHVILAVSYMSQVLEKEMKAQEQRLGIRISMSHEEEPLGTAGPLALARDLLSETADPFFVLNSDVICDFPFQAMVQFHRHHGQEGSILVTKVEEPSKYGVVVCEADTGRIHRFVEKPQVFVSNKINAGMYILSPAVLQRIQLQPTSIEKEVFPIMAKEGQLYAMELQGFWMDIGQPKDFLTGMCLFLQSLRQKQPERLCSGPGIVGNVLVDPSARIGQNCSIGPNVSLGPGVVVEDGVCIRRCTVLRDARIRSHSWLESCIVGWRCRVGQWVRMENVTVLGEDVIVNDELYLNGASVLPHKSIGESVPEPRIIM
UniProt Q9NZD2: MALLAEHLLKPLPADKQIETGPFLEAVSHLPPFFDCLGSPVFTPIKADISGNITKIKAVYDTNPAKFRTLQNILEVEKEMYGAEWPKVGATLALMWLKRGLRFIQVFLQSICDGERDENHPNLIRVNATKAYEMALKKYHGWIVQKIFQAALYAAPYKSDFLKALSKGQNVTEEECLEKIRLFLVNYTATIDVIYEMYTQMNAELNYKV
UniProt Q12849: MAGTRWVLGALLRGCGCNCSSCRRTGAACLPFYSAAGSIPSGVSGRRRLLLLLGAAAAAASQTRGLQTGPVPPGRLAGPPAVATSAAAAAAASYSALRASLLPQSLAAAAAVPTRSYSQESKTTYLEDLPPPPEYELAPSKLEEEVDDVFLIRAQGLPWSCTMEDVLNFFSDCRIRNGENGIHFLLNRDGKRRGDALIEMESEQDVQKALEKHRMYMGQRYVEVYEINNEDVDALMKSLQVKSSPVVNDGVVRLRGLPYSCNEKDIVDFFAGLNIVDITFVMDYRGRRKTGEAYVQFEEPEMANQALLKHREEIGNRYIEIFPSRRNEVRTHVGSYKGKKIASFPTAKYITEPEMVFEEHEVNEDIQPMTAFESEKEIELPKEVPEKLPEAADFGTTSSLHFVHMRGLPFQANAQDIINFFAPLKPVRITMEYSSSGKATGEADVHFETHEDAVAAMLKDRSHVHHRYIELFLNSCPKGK
UniProt Q9HC38: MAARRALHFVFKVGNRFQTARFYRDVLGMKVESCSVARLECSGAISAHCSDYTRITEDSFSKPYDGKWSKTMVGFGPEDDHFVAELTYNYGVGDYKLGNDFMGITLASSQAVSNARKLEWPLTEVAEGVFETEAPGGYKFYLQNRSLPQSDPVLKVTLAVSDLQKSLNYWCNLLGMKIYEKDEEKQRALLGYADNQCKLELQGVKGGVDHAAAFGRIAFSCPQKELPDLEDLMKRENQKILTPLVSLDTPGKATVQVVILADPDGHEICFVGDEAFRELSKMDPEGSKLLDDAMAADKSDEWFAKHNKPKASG
UniProt Q9Y2X7: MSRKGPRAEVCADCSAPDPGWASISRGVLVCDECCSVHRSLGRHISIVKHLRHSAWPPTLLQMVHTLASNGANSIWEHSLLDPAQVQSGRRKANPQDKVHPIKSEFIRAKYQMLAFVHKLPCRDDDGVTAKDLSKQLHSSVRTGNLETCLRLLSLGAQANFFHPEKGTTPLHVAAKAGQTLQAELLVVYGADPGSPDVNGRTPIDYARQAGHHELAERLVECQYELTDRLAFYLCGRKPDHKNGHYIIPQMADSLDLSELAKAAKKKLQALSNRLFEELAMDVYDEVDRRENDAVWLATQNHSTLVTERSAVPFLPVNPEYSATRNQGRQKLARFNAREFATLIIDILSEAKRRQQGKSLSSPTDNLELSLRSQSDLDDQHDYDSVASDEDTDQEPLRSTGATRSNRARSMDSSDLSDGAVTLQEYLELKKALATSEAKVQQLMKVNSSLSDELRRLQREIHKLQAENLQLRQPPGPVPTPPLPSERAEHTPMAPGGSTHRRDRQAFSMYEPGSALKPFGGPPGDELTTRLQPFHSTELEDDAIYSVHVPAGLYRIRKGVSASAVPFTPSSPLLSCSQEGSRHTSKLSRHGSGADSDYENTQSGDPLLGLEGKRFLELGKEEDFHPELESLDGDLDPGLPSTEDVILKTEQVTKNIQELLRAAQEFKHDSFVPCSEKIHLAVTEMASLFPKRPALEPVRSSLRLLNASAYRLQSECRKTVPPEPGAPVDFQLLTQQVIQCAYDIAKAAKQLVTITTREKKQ
UniProt Q5T7V8: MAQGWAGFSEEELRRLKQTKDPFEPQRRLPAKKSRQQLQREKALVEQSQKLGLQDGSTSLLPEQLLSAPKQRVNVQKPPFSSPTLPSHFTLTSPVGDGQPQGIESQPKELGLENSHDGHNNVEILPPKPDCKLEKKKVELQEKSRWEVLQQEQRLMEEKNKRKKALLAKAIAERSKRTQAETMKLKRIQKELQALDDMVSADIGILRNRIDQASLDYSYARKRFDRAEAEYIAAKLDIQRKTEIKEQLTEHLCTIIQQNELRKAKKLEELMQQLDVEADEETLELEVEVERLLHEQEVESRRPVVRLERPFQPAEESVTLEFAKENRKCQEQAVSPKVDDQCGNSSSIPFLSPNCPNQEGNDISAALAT
UniProt Q9HAV7: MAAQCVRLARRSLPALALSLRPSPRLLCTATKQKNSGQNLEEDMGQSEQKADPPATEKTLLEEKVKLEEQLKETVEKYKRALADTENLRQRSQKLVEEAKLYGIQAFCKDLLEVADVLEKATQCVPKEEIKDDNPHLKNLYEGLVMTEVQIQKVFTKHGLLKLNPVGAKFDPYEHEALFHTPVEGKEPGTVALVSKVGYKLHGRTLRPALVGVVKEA
UniProt P32189: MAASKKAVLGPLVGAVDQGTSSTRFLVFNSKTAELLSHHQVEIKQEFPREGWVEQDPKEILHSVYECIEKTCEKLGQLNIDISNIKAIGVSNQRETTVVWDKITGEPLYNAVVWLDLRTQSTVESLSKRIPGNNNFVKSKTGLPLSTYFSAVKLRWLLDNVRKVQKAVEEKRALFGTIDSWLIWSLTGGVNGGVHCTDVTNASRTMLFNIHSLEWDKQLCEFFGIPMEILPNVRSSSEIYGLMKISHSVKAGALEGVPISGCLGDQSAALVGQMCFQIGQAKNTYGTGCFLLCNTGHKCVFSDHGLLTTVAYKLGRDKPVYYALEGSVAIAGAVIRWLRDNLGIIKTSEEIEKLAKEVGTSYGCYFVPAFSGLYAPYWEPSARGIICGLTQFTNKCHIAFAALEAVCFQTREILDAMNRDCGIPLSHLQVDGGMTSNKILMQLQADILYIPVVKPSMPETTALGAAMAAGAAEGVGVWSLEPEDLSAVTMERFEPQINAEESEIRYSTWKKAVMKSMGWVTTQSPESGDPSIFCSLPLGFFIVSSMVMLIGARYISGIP
UniProt Q8TDQ7: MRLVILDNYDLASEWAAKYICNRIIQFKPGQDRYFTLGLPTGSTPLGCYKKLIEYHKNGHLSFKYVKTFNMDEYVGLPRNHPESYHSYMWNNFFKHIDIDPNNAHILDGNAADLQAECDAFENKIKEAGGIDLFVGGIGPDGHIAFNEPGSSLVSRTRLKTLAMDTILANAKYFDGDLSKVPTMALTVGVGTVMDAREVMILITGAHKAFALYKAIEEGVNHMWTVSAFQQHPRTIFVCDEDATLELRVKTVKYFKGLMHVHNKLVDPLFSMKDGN
UniProt P29992, whole entry, looked up: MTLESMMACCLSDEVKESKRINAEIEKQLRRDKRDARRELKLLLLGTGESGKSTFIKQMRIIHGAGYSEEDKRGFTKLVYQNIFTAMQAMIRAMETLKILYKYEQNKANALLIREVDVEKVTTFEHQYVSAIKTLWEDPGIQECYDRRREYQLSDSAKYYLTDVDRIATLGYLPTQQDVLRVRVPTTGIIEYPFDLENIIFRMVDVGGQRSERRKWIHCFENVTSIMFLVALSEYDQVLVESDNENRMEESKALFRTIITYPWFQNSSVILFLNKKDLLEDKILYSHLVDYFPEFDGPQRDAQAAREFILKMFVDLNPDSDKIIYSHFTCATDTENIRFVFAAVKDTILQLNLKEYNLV

Compound: c1cn2cc(-c3ccc4cn[nH]c4c3)nc(Nc3ccc(N4CCOCC4)cc3)c2n1 [entospletinib]
Assay: log2 fold change, soluble protein after heating vs DMSO (PISA); higher = thermal stabilisation; K562 cells, 10 uM, 30 min; active = over 0.2 and 3.5 SD of the protein, either way, in both replicates (recomputed)
How it was run: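 K562 cells at 2×10^6 cells/mL were treated for 30 min with 10 μM compound, and aliquots were heated for 3 min over 48°C-58°C before pooling. Extraction used PBS with 0.5% NP-40 at 4°C, and soluble protein was the supernatant after 21,000xg for 90 min, measured by TMTpro 16plex LC-MS/MS with channel sums equalised. Thermal stability values, relative to control samples and from duplicates, are log2 fold changes.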

log2 fold change, inactive:
GNPDA1 (UniProt P46926) -0.005
GPD1L (UniProt Q8N335) -0.117
GOLT1B (UniProt Q9Y3E0) -0.003
GPAA1 (UniProt E9PLG8) 0.043
GPR89A (UniProt B7ZAQ6) -0.011
GPAA1 (UniProt O43292) -0.018
GPS1 isoform 7 (UniProt Q13098) -0.002
GOT2 (UniProt P00505) -0.004
GOSR1 (UniProt O95249) -0.023
GPHN isoform 2 (UniProt Q9NQX3) 0.026
GPATCH1 (UniProt Q9BRR8) -0.102
GLRX5 (UniProt Q86SX6) -0.123
GM2A (UniProt P17900) -0.061
GPI (UniProt P06744) -0.063
GNB1 (UniProt P62873) 0.005
GID8 (UniProt Q9NWU2) -0.004
GNB1L (UniProt Q9BYB4) -0.037
GNPNAT1 (UniProt Q96EK6) 0.033
GOLGA2 (UniProt Q08379) 0.042
GMPPB isoform 2 (UniProt Q9Y5P6) -0.067
GLTP (UniProt Q9NZD2) 0.083
GORASP2 isoform 3 (UniProt Q9H8Y8) -0.062
GRSF1 (UniProt Q12849) 0.12
GLRX2 isoform 2 (UniProt Q9NS18) -0.07
GLOD4 isoform 2 (UniProt Q9HC38) -0.012
GIT1 isoform 3 (UniProt Q9Y2X7) 0.265
GORAB (UniProt Q5T7V8) 0.014
GRPEL1 (UniProt Q9HAV7) -0.018
GPN2 (UniProt Q9H9Y4) -0.017
GK (UniProt P32189) 0.006
GNPDA2 (UniProt Q8TDQ7) 0.004
GNA11 (UniProt P29992) 0.069
GOLGA3 (UniProt Q08378) 0.007

Looked up one by one from the list above (2):
log2 fold change, inactive:
GPHN isoform 2 (UniProt Q9NQX3) 0.026
GPAA1 (UniProt O43292) -0.018
